No constants are given. Whether binding was seen depends on the method and setting. Some results given as binding are weak or reduced against the parent protein; the word gives no strength.

Amino acid sequences for entries named in this document (tags omitted). Residues count along the entry.
UniProt Q62667, residues 68-861: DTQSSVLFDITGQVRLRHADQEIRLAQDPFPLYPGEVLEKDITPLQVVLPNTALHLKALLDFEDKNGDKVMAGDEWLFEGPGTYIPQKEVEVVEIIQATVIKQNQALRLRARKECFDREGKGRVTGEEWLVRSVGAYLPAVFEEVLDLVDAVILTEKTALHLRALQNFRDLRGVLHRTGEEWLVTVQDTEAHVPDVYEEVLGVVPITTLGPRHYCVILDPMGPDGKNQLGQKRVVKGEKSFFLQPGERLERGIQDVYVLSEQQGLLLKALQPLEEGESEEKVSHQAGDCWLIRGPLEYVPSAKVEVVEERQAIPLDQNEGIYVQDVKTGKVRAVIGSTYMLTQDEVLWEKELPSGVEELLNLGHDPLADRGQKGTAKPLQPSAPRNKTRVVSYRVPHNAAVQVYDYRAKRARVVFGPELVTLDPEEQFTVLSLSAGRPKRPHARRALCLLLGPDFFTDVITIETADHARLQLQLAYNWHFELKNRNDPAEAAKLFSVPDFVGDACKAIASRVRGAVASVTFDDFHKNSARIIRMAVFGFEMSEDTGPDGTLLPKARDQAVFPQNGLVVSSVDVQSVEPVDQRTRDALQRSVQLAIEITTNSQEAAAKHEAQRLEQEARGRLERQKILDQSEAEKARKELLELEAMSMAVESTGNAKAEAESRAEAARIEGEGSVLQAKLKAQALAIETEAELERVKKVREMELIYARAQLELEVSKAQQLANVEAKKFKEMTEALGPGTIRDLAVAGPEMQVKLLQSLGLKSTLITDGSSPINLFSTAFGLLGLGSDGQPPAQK

The target of the experiment is rat major vault protein having the 67 amino acids at the amino-terminal truncated (rat) (UniProt Q62667). In words: yeast two-hybrid (interaction trap), blue colonies on galactose/X-gal media.

B1: human minor vault protein p193 (other)
chain: VCTQHWQDAVPWTELLSLQTEDGFWKLTPELGLILNLNTNGLHSFLKQKGIQSLGVKGRECLLDLIATMLVLQFIRTRLEKEGIVFKSLMKMDDPSISRNIPWAFEAIKQASEWVRRTEGQYPSICPRLELGNDWDSATKQLLGLQPISTVSPLHRVLHYSQG
notes: In the two-hybrid screen, p193 was a clone from a HeLa acid fusion cDNA library; In the western blots, immunofluorescence and immunoprecipitation, the form of p193 is not described; also called 193 kDa minor vault protein; human vault protein p193
As for B1, the binding entry is given as “binds”.

The record behind these values is patent publication US6555347 (University of California, dated 2003).
